Results published in article PMC9452577.
No constants are given. Whether binding was seen depends on the method and setting. In cells and extracts the contact can be indirect. Binding calls can cover weak binding; strength is not graded here.

Key:
[1] = target: c-Jun N-terminal kinase (JNK), endogenous (human (endogenous in HK-2)); assay: co-IP; endogenous proteins in HK-2 cells under hypoxia/reoxygenation (HR) injury; 1 mg total lysate (1% Triton X-100, 150 mM NaCl, 60 mM octyl glucoside buffer) with anti-RCAN1, anti-JNK or anti-Mff overnight at 4 °C, protein A/G magnetic beads; IgG control; immunoblot
[2] = target: GFP-RCAN1 (pCMV-EGFP-RCAN1.1 S); assay: co-IP; HK-2 cells transfected with GFP-RCAN1 (RCAN1 overexpression); 1 mg total lysate with anti-GFP and other antibodies overnight at 4 °C, protein A/G magnetic beads; IgG control; immunoblot for GFP, JNK and Mff

B1: Mitochondrial fission factor (Mff), endogenous (protein, UniProt Q9GZY8 1-342)
chain: MSKGTSSDTSLGRVSRAAFPSPTAAEMAEISRIQYEMEYTEGISQRMRVPEKLKVAPPNADLEQGFQEGVPNASVIMQVPERIVVAGNNEDVSFSRPADLDLIQSTPFKPLALKTPPRVLTLSERPLDFLDLERPPTTPQNEEIRAVGRLKRERSMSENAVRQNGQLVRNDSLWHRSDSAPRNKISRFQAPISAPEYTVTPSPQQARVCPPHMLPEDGANLSSARGILSLIQSSTRRAYQQILDVLDENRRPVLRGGSAAATSNPHHDNVRYGISNIDTTIEGTSDDLTVVDAASLRRQIIKLNRRLQLLEEENKERAKREMVMYSITVAFWLLNSWLWFRR
binding [1]: binds | binding [2]: binds
